These results are taken from the supplement of paper PMC9938546.

Counter-ions that a name gives are not always drawn. This is one part of the list. Baselines shift from plate to plate; read single values as rough.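 HCT116-GFP is a human colorectal cancer cell line that carries a KRAS mutation, is microsatellite-unstable and always makes green fluorescent protein; the immune cells came from healthy donors. Live-cell imaging of the green signal stood in for cancer cell survival, and activated immune cells alone cut survival to about half.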

In the experiment the test system is HCT116-GFP. In words: HCT116-GFP viability (GFP intensity) relative to untreated HCT116-GFP monoculture control, co-culture with activated PBMCs; higher = less cancer cell killing. To be noted: culture: co-culture with anti-CD3/IL2 activated PBMCs 1:1; 10 µM; 72 h.
Turning to `COC(=O)Nc1nc2cc(C(=O)c3ccccc3)ccc2[nH]1` [Mebendazole], the HCT116-GFP viability was 3.01%.

With `Cc1cc2c(cc1S(N)(=O)=O)S(=O)(=O)CCC2` [Meticrane], the HCT116-GFP viability amounted to 45.5%.

Take `NCCNCCNCCNCCN` [Tetraethylenepentamine pentahydrochloride]: the HCT116-GFP viability worked out at 77.2%.

In the case of `Cc1onc(-c2c(Cl)cccc2Cl)c1C(=O)N[C@@H]1C(=O)N2[C@@H]1SC(C)(C)[C@@H]2C(=O)O` [Dicloxacillin sodium salt hydrate], the HCT116-GFP viability came out at 64%.

As for `CN1C(C)(C)CCCC1(C)C` [Pempidine tartrate], the HCT116-GFP viability is 75.7%.

Turning to `CC[N+](C)(C)Cc1ccccc1Br` [Bretylium tosylate], the HCT116-GFP viability was 62.2%.

In turn, `C[N+](C)(C)CCCCCC[N+](C)(C)C` [Hexamethonium dibromide dihydrate] came in with an HCT116-GFP viability of 36.1%.

The compound `CN(C)/N=N/c1[nH]cnc1C(N)=O` [Dacarbazine] showed an HCT116-GFP viability of 35.4%.

With `O=C(O)c1cccnc1Nc1cccc(C(F)(F)F)c1` [Niflumic acid], the HCT116-GFP viability was 28.2%.

Take `COc1ccc(C(Cl)=C(c2ccc(OC)cc2)c2ccc(OC)cc2)cc1` [Chlorotrianisene]: the HCT116-GFP viability stood at 54%.

As to `Cc1oncc1C(=O)Nc1ccc(C(F)(F)F)cc1` [Leflunomide], the HCT116-GFP viability stood at 50.8%.

Compound `CCOC(=O)[C@H](CCc1ccccc1)N[C@@H](C)C(=O)N1Cc2ccccc2C[C@H]1C(=O)O` [Quinapril hydrochloride] yielded an HCT116-GFP viability of 70.9%.

Compound `CC(CCc1ccccc1)NCC(O)c1ccc(O)c(C(N)=O)c1` (stereo not drawn) [Labetalol hydrochloride] showed an HCT116-GFP viability of 44.5%.

As for `NS(=O)(=O)c1cc(C(=O)O)cc(N2CCCC2)c1Oc1ccccc1` [Piretanide], the HCT116-GFP viability was 47%.

The compound `Cc1cc(C(C)(C)C)c(O)c(C)c1CC1=NCCN1` [Oxymetazoline hydrochloride] had an HCT116-GFP viability of 40.5%.

`CN(C)CCCN1c2ccccc2Sc2ccccc21` [Promazine hydrochloride] returned an HCT116-GFP viability of 83.2%.

`COc1ccc([C@@H]2CC(=O)c3c(O)cc(O[C@@H]4O[C@H](CO[C@@H]5O[C@@H](C)[C@H](O)[C@@H](O)[C@H]5O)[C@@H](O)[C@H](O)[C@H]4O)cc3O2)cc1O` [Hesperidin] registered an HCT116-GFP viability of 60.7%.

`CC(C)(C(=O)O)c1ccc(C(O)CCCN2CCC(C(O)(c3ccccc3)c3ccccc3)CC2)cc1` (stereo not drawn) [Fexofenadine hydrochloride]: the HCT116-GFP viability was 19.2%.

As to `Cc1c(C)c2c(c(C)c1O)CCC(C)(COc1ccc(CC3SC(=O)NC3=O)cc1)O2` (stereo not drawn) [Troglitazone], the HCT116-GFP viability worked out at 50.8%.

For the compound `COC(c1ccccc1)(c1ccccc1)[C@H](Oc1nc(C)cc(C)n1)C(=O)O` [Ambrisentan], the HCT116-GFP viability was 35.1%.

For `CC(C(=O)O)c1ccc2c(c1)Cc1cccnc1O2` (stereo not drawn) [Pranoprofen], the HCT116-GFP viability came out at 80%.

`CSc1ccc2c(c1)C(N1CCN(C)CC1)Cc1ccccc1S2` (stereo not drawn) [Methiothepin maleate] showed an HCT116-GFP viability of 45.6%.

Compound `CNCCCC1c2ccccc2C=Cc2ccccc21` [Protriptyline hydrochloride] had an HCT116-GFP viability of 78.4%.

Compound `CCCCCCC[N+](CC)(CC)CCCCc1ccc(Cl)cc1` [Clofilium tosylate] showed an HCT116-GFP viability of 20%.

For `C[C@]12CCC(=O)C=C1CC[C@@H]1[C@@H]2[C@@H](O)C[C@@]2(C)[C@H]1CC[C@]2(O)C(=O)CO` [Hydrocortisone base], the HCT116-GFP viability amounted to 80%.

As to `Oc1ncnc2[nH]ncc12` [Allopurinol], the HCT116-GFP viability was found to be 87.2%.

As for `CCCc1cc(=O)[nH]c(=S)[nH]1` [Propylthiouracil], the HCT116-GFP viability was 39.2%.

`COc1ccc(CCN(C)CCCC(C#N)(c2ccc(OC)c(OC)c2)C(C)C)cc1OC` (stereo not drawn) [Verapamil hydrochloride] gave an HCT116-GFP viability of 37.5%.

The compound `Cc1onc(-c2ccccc2)c1-c1ccc(S(N)(=O)=O)cc1` [Valdecoxib] returned an HCT116-GFP viability of 35.9%.

In turn, `C[N+]1(CCCCC[N+]2(C)CCCC2)CCCC1` [Pentolinium bitartrate] had an HCT116-GFP viability of 28.2%.

In turn, `Fc1ccc(C(c2ccc(F)cc2)N2CCN(C/C=C/c3ccccc3)CC2)cc1` [Flunarizine dihydrochloride] returned an HCT116-GFP viability of 46.4%.

`CCCCC(=O)O[C@H]1CC[C@H]2[C@@H]3CCc4cc(O)ccc4[C@H]3CC[C@]12C` [Estradiol Valerate] displayed an HCT116-GFP viability of 55.4%.

`Cn1c(NCCN(CCO)CCCc2ccc([N+](=O)[O-])cc2)cc(=O)n(C)c1=O` [Nifekalant] yielded an HCT116-GFP viability of 34.7%.

In the case of `N=C(N)c1ccc(OCCCCCOc2ccc(C(=N)N)cc2)cc1` [Pentamidine isethionate], the HCT116-GFP viability is 23.3%.

Take `OCCOCCN1CCN(C2=Nc3ccccc3Sc3ccccc32)CC1` [Quetiapine hemifumarate]: the HCT116-GFP viability came out at 55.5%.

`CC1(C)S[C@@H]2[C@H](NC(=O)[C@H](N)c3ccc(O)cc3)C(=O)N2[C@H]1C(=O)O` [Amoxicillin] showed an HCT116-GFP viability of 41.7%.

Compound `COc1cccc2c1C(=O)c1c(O)c3c(c(O)c1C2=O)C[C@@](O)(C(=O)CO)C[C@@H]3O[C@H]1C[C@H](N)[C@H](O)[C@H](C)O1` [Doxorubicin hydrochloride] gave an HCT116-GFP viability of 6.06%.

`CCC(=O)O[C@@H](O[P@](=O)(CCCCc1ccccc1)CC(=O)N1C[C@H](C2CCCCC2)C[C@H]1C(=O)O)C(C)C` [Fosinopril] registered an HCT116-GFP viability of 33.4%.

Turning to `Nc1nc(Cl)nc2c1ncn2[C@H]1C[C@H](O)[C@@H](CO)O1` [Cladribine], the HCT116-GFP viability is 16.7%.

Compound `CN[C@@H]1[C@H](O[C@H]2[C@H](O[C@H]3[C@H](O)[C@@H](O)[C@H](N=C(N)N)[C@@H](O)[C@@H]3N=C(N)N)O[C@@H](C)[C@]2(O)C=O)O[C@@H](CO)[C@H](O)[C@H]1O` [Streptomycin sulfate] came in with an HCT116-GFP viability of 48.8%.

Take `N=C(N)NC(=O)Cc1c(Cl)cccc1Cl` [Guanfacine hydrochloride]: the HCT116-GFP viability was 22.5%.

For the compound `CC1CNc2c(cccc2S(=O)(=O)N[C@@H](CCCNC(=N)N)C(=O)N2CC[C@@H](C)C[C@@H]2C(=O)O)C1` (stereo partly drawn) [Argatroban], the HCT116-GFP viability was found to be 47.9%.

Compound `CN(C)CCN(Cc1ccccc1)c1ccccn1` [Tripelennamine hydrochloride] came in with an HCT116-GFP viability of 42.1%.

Compound `Nc1ccn([C@@H]2O[C@H](CO)[C@@H](O)C2(F)F)c(=O)n1` [Gemcitabine] registered an HCT116-GFP viability of 11.5%.

For `CN1C(=O)CC(c2ccccc2)C1=O` (stereo not drawn) [Phensuximide], the HCT116-GFP viability stood at 45.8%.

Compound `CC(=O)O[C@@]12CO[C@@H]1C[C@H](O)[C@@]1(C)C(=O)[C@H](O)C3=C(C)[C@@H](OC(=O)[C@H](O)[C@@H](NC(=O)OC(C)(C)C)c4ccccc4)C[C@@](O)([C@@H](OC(=O)c4ccccc4)[C@H]21)C3(C)C` [Docetaxel] yielded an HCT116-GFP viability of 3.39%.

Consider `Clc1ccc(CSC(Cn2ccnc2)c2ccc(Cl)cc2Cl)cc1` (stereo not drawn) [Sulconazole nitrate], for which the HCT116-GFP viability came to 45.4%.

`C[C@]12CC[C@@H]3c4ccc(O)cc4CC[C@H]3[C@@H]1CC[C@@H]2O` [Estradiol-17 beta]: the HCT116-GFP viability worked out at 60.8%.

In the case of `CCCN(CCC)S(=O)(=O)c1ccc(C(=O)O)cc1` [Probenecid], the HCT116-GFP viability is 52.4%.

As to `CN(C)CCOC(c1ccccc1)c1ccccc1` [Diphenhydramine hydrochloride], the HCT116-GFP viability worked out at 61.5%.

With `COc1ccc2[nH]c([S+]([O-])Cc3ncc(C)c(OC)c3C)nc2n1` (stereo not drawn) [Tenatoprazole], the HCT116-GFP viability was 49.6%.

Consider `CC(=O)[C@H]1CC[C@H]2[C@@H]3CCC4=CC(=O)CC[C@]4(C)[C@H]3CC[C@]12C` [Progesterone], for which the HCT116-GFP viability is 69.2%.

On to `CN(C)CC/C=C1/c2ccccc2Sc2ccc(Cl)cc21` [Chlorprothixene hydrochloride], for which the HCT116-GFP viability was determined as 69.6%.

Consider `NC(Cc1cc(I)c(Oc2cc(I)c(O)c(I)c2)c(I)c1)C(=O)O` (stereo not drawn) [Thyroxine (L)], for which the HCT116-GFP viability was found to be 33.9%.

Take `CC(=O)Oc1ccccc1C(=O)O` [Acetylsalicylic acid]: the HCT116-GFP viability is 28%.

In the case of `N=C(N)NS(=O)(=O)c1ccc(N)cc1` [Sulfaguanidine], the HCT116-GFP viability came to 37.9%.

The compound `CC1=C(/C=C/C(C)=C/C=C/C(C)=C/C(=O)O)C(C)(C)CCC1` [Retinoic acid] yielded an HCT116-GFP viability of 43%.

Regarding `NC(=O)c1cc[n+](CC2=C(C(=O)[O-])N3C(=O)[C@@H](NC(=O)[C@@H](c4ccccc4)S(=O)(=O)O)[C@H]3SC2)cc1` [Cefsulodin sodium salt], the HCT116-GFP viability was 75.3%.

In turn, `CCc1c(C)[nH]c2c1C(=O)C(CN1CCOCC1)CC2` (stereo not drawn) [Molindone hydrochloride] yielded an HCT116-GFP viability of 50.8%.

`CCC1(c2ccccc2)NC(=O)N(C)C1=O` (stereo not drawn) [Mephenytoin] showed an HCT116-GFP viability of 18.3%.

In turn, `CC1(C)[C@H](C(=O)O)N2C(=O)C[C@H]2S1(=O)=O` [Sulbactam] displayed an HCT116-GFP viability of 53.5%.

Consider `Cc1ncc(CO)c(CO)c1O` [Pyridoxine hydrochloride], for which the HCT116-GFP viability amounted to 40.7%.

The compound `C#C[C@]1(OC(C)=O)CC[C@H]2[C@@H]3CCC4=CC(=NO)CC[C@@H]4[C@H]3CC[C@@]21CC` (mixture of isomers) [Norgestimate] gave an HCT116-GFP viability of 42.7%.

Turning to `Clc1ccc(CO/N=C(\Cn2ccnc2)c2ccc(Cl)cc2Cl)c(Cl)c1` [Oxiconazole Nitrate], the HCT116-GFP viability is 50.1%.

`CC(=O)O[C@]1(C(C)=O)CC[C@H]2[C@@H]3C=C(Cl)C4=CC(=O)[C@@H]5C[C@@H]5[C@]4(C)[C@H]3CC[C@@]21C` [Cyproterone acetate]: the HCT116-GFP viability was found to be 35%.

As for `N[C@@H]1CONC1=O` [D-cycloserine], the HCT116-GFP viability is 33.2%.

In the case of `O=C(O)COCCN1CCN(C(c2ccccc2)c2ccc(Cl)cc2)CC1` (stereo not drawn) [Cetirizine dihydrochloride], the HCT116-GFP viability is 32.5%.

In the case of `Clc1ccc(Cn2c(CN3CCCC3)nc3ccccc32)cc1` [Clemizole hydrochloride], the HCT116-GFP viability turned out to be 56.9%.

As to `COc1cc2nc(N(C)CCCNC(=O)C3CCCO3)nc(N)c2cc1OC` (stereo not drawn) [Alfuzosin hydrochloride], the HCT116-GFP viability came out at 45.1%.

Compound `O=C(O)c1cn(C2CC2)c2cc(N3CCNCC3)c(F)cc2c1=O` [Ciprofloxacin hydrochloride monohydrate] returned an HCT116-GFP viability of 41.1%.

As to `C#CCN[C@@H]1CCc2ccccc21` [Rasagiline], the HCT116-GFP viability was found to be 30%.

For `COc1ccc(-c2cc(=S)ss2)cc1` [Anethole-trithione], the HCT116-GFP viability was 21.3%.

Consider `COc1cc(C(=O)NCc2ccc(OCCN(C)C)cc2)cc(OC)c1OC` [Trimethobenzamide hydrochloride], for which the HCT116-GFP viability is 38.7%.
